{"source": "patent US20250295717A1", "about": "“RE[…] OF R[…] VIRUS, COMBINATION, AND APPLICATION THEREOF” (NEUREGEN BIOTHERAPEUTICS (SHANGHAI) CO. LTD, priority 2022, published 2025)", "key": {"[1]": {"system": "human glioma U87 cells subcutaneous implantation", "assay": "Subcutaneous U87 glioma model, combination with temozolomide (Example 5)", "assay_type": "in vivo, mouse", "conditions": "Ad5-AN 1×10^9 PFU, TMZ 15 mg/kg gavage", "experimental": "For the subcutaneous glioma model, human U87 glioma cells were cultured, and during the logarithmic growth phase, they were inoculated into the axillae of nude mice. After two passages, the tumor tissue was collected under sterile conditions, and the tumor mass was cut into uniform small pieces approximately the size of grains of rice, which were then inoculated subcutaneously in the axillae of nude mice using an implantation needle. Once the tumor grew to approximately 100 mm^3, the mice were randomly grouped, and the treatment began. All samples were dissolved in PBS, with an injection volume of 50 μL/tumor. The length and width of the tumor were measured every three days, and the tumor volume was calculated using the formula: […]\nIn this example, a subcutaneous implantation model using human glioma U87 cells in BALB/c nu/nu mice was adopted. U87 human glioblastoma cells were inoculated into the armpits of the nude mice during the logarithmic growth phase. When the tumor grew to approximately 100 mm^3, appropriate tumor-bearing mice were randomly grouped. After grouping, treatment commenced, with the PBS group serving as the control. […] Tumor volume was measured every three days, and later, the animals were euthanized to weigh the tumors and perform biochemical and molecular analyses."}, "human glioma tissue PDX": {"system": "human glioma tissue PDX", "assay": "Patient-derived tumor xenograft (PDX) model from human glioma tissue (Example 7)", "assay_type": "in vivo, mouse", "conditions": "Ad5-AN 1×10^9 PFU, TMZ 15 mg/kg", "experimental": "To further validate the combined effect of oncolytic viruses and redifferentiation therapy, this implementation was tested in a patient-derived tumor xenograft (PDX) model constructed from human glioma tissue. PDX tissues were inoculated into the armpits of nude mice for passaging, and when they reached the logarithmic growth phase, they were re-inoculated into the armpits of nude mice. When the tumor grew to approximately 100 mm^3, appropriate tumor-bearing mice were randomly grouped. After grouping, treatment commenced, with the PBS group serving as the control. The Ad5-AN group received a dose of 1×10^9 PFU, while the temozolomide (TMZ) gavage group received 15 mg/kg once daily for five days, followed by two days off. Additionally, there was a combination treatment group of Ad5-AN and temozolomide, with Ad5-AN administered every two days for a total of five doses. Tumor volume was measured every three days, and later, the animals were euthanized to weigh the tumors and perform biochemical and molecular analyses."}}, "note": "At least one structure is not confirmed: it was looked up by name or label, or the drawing left a doubt.", "data": [{"smiles": "Cn1nnc2c(C(N)=O)ncn2c1=O", "note": "[temozolomide]", "values": [{"measurement": "tumor volume compared to control PBS group (combination: versus either monotherapy)", "setting": "[1]", "result": "significant reduction"}, {"measurement": "tumor volume compared to control PBS group (combination: versus both monotherapy groups)", "setting": "human glioma tissue PDX", "result": "decreased significantly"}]}]}
